{"source": "PubChem BioAssay AID652272 – Drosophila RNAi Screening Center | 2013", "screen": "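Genome-wide knock-down search for components of Hedgehog signalling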 (primary screen)", "cell system": "Drosophila clone 8 (Cl8) cells", "knock-down reagent": "long dsRNA against Drosophila genes", "measured": "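Firefly light from a Hedgehog-responsive ptc promoter reporter and Renilla reference light, both read on a plate reader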", "scale": "firefly Hh reporter signal: higher = more ptc reporter light; Renilla reference signal: higher = more Renilla control light", "active means": "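Called a hit if the two-replicate mean z-score lies below -2 or above +3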", "meaning of the calls": "active = hit: reporter lowered or raised; inactive = not a hit", "note": "The screen tested about 21,000 reagents; below is a random part of those that have a named target and a result. Of all reagents, 503 (2.4%) are marked active. 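Raw plate light values, not normalised; calls rest on replicate z-scores that were not deposited; hits include reporter decreases as well as increases.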 A number with no mark means an inactive call. Reagents against one gene are numbered here. Not given: the amount of reagent, the time to read-out."}
{"Gene": "Gmd (GDP-mannose 4,6-dehydratase)", "dsRNA no.": 1, "firefly Hh reporter signal, replicate 1": 84087, "firefly Hh reporter signal, replicate 2": 77693, "Renilla reference signal, replicate 1": 3616, "Renilla reference signal, replicate 2": 3736}
{"Gene": "CG15894", "dsRNA no.": 1, "firefly Hh reporter signal, replicate 1": 67283, "firefly Hh reporter signal, replicate 2": 1.78e5, "Renilla reference signal, replicate 1": 2375, "Renilla reference signal, replicate 2": 6752}
{"Gene": "CG15894", "dsRNA no.": 2, "firefly Hh reporter signal, replicate 1": 34857, "firefly Hh reporter signal, replicate 2": 51981, "Renilla reference signal, replicate 1": 1344, "Renilla reference signal, replicate 2": 2449}
{"Gene": "RpS25 (Ribosomal protein S25)", "dsRNA no.": 1, "firefly Hh reporter signal, replicate 1": 49744, "firefly Hh reporter signal, replicate 2": 74682, "Renilla reference signal, replicate 1": 1997, "Renilla reference signal, replicate 2": 2693}
{"Gene": "CG3708", "dsRNA no.": 1, "firefly Hh reporter signal, replicate 1": 1.11e5, "firefly Hh reporter signal, replicate 2": 3.37e5, "Renilla reference signal, replicate 1": 3504, "Renilla reference signal, replicate 2": 10470}
{"Gene": "CG5535", "dsRNA no.": 1, "firefly Hh reporter signal, replicate 1": 78816, "firefly Hh reporter signal, replicate 2": 58071, "Renilla reference signal, replicate 1": 3792, "Renilla reference signal, replicate 2": 2625}
{"Gene": "tomboy40", "dsRNA no.": 1, "firefly Hh reporter signal, replicate 1": 1.48e5, "firefly Hh reporter signal, replicate 2": 89561, "Renilla reference signal, replicate 1": 5600, "Renilla reference signal, replicate 2": 3698}
{"Gene": "CG15258", "dsRNA no.": 1, "firefly Hh reporter signal, replicate 1": 81744, "firefly Hh reporter signal, replicate 2": 69892, "Renilla reference signal, replicate 1": 2141, "Renilla reference signal, replicate 2": 5896}
{"Gene": "CG14109", "dsRNA no.": 1, "firefly Hh reporter signal, replicate 1": 50752, "firefly Hh reporter signal, replicate 2": 41738, "firefly Hh reporter signal, replicate 3": 60331, "Renilla reference signal, replicate 1": 3888, "Renilla reference signal, replicate 2": 3962}
{"Gene": "CG15198", "dsRNA no.": 1, "firefly Hh reporter signal, replicate 1": 83669, "firefly Hh reporter signal, replicate 2": 2.66e5, "Renilla reference signal, replicate 1": 2392, "Renilla reference signal, replicate 2": 10583}
{"Gene": "CG2070", "dsRNA no.": 1, "firefly Hh reporter signal, replicate 1": 63847, "firefly Hh reporter signal, replicate 2": 24432, "Renilla reference signal, replicate 1": 1794, "Renilla reference signal, replicate 2": 2360}
{"Gene": "CG12607", "dsRNA no.": 1, "firefly Hh reporter signal, replicate 1": "54009 (active)", "firefly Hh reporter signal, replicate 2": 49829, "Renilla reference signal, replicate 1": 1073, "Renilla reference signal, replicate 2": 3888}
{"Gene": "TfIIB (Transcription factor IIB)", "dsRNA no.": 1, "firefly Hh reporter signal, replicate 1": 84656, "firefly Hh reporter signal, replicate 2": 52544, "Renilla reference signal, replicate 1": 2346, "Renilla reference signal, replicate 2": 4116}
{"Gene": "Sara (Smad anchor for receptor activation)", "dsRNA no.": 1, "firefly Hh reporter signal, replicate 1": 66280, "firefly Hh reporter signal, replicate 2": 75513, "Renilla reference signal, replicate 1": 1661, "Renilla reference signal, replicate 2": 6249}
{"Gene": "CG17109", "dsRNA no.": 1, "firefly Hh reporter signal, replicate 1": 6.89e5, "firefly Hh reporter signal, replicate 2": 1.59e5, "Renilla reference signal, replicate 1": 36496, "Renilla reference signal, replicate 2": 4891}
{"Gene": "Taz (Tafazzin)", "dsRNA no.": 1, "firefly Hh reporter signal, replicate 1": 1.29e5, "firefly Hh reporter signal, replicate 2": 6.77e5, "firefly Hh reporter signal, replicate 3": 1.10e5, "Renilla reference signal, replicate 1": 3298, "Renilla reference signal, replicate 2": 42636}
{"Gene": "BG642163", "dsRNA no.": 1, "firefly Hh reporter signal, replicate 1": 83817, "firefly Hh reporter signal, replicate 2": 65223, "Renilla reference signal, replicate 1": 2281, "Renilla reference signal, replicate 2": 6477}
{"Gene": "BG642163", "dsRNA no.": 2, "firefly Hh reporter signal, replicate 1": 1.32e5, "firefly Hh reporter signal, replicate 2": 66417, "Renilla reference signal, replicate 1": 3260, "Renilla reference signal, replicate 2": 5993}
{"Gene": "CG17493", "dsRNA no.": 1, "firefly Hh reporter signal, replicate 1": 76100, "firefly Hh reporter signal, replicate 2": 45241, "Renilla reference signal, replicate 1": 2649, "Renilla reference signal, replicate 2": 4662}
{"Gene": "CG6329", "dsRNA no.": 1, "firefly Hh reporter signal, replicate 1": 1.08e5, "firefly Hh reporter signal, replicate 2": 1.10e5, "Renilla reference signal, replicate 1": 5164, "Renilla reference signal, replicate 2": 4322}
{"Gene": "vret (vreteno)", "dsRNA no.": 1, "firefly Hh reporter signal, replicate 1": 1.14e5, "firefly Hh reporter signal, replicate 2": 95893, "Renilla reference signal, replicate 1": 4886, "Renilla reference signal, replicate 2": 4358}
{"Gene": "ppk17 (pickpocket 17)", "dsRNA no.": 1, "firefly Hh reporter signal, replicate 1": 1.08e5, "firefly Hh reporter signal, replicate 2": 65556, "Renilla reference signal, replicate 1": 2906, "Renilla reference signal, replicate 2": 5942}
{"Gene": "CG43329", "dsRNA no.": 1, "firefly Hh reporter signal, replicate 1": 71672, "firefly Hh reporter signal, replicate 2": 96295, "Renilla reference signal, replicate 1": 3192, "Renilla reference signal, replicate 2": 1387}
{"Gene": "CG7024", "dsRNA no.": 1, "firefly Hh reporter signal, replicate 1": 60210, "firefly Hh reporter signal, replicate 2": 1.18e5, "Renilla reference signal, replicate 1": 1889, "Renilla reference signal, replicate 2": 5316}
{"Gene": "Or47b (Odorant receptor 47b)", "dsRNA no.": 1, "firefly Hh reporter signal, replicate 1": 1.04e5, "firefly Hh reporter signal, replicate 2": 46129, "Renilla reference signal, replicate 1": 2507, "Renilla reference signal, replicate 2": 3549}
{"Gene": "CG6426", "dsRNA no.": 1, "firefly Hh reporter signal, replicate 1": 87936, "firefly Hh reporter signal, replicate 2": 60784, "Renilla reference signal, replicate 1": 2288, "Renilla reference signal, replicate 2": 4710}
{"Gene": "CG5004", "dsRNA no.": 1, "firefly Hh reporter signal, replicate 1": 86784, "firefly Hh reporter signal, replicate 2": 1.65e5, "Renilla reference signal, replicate 1": 1699, "Renilla reference signal, replicate 2": 7284}
{"Gene": "CG5004", "dsRNA no.": 2, "firefly Hh reporter signal, replicate 1": 71958, "firefly Hh reporter signal, replicate 2": 2.66e5, "Renilla reference signal, replicate 1": 930, "Renilla reference signal, replicate 2": 11049}
{"Gene": "CG5004", "dsRNA no.": 3, "firefly Hh reporter signal, replicate 1": 60684, "firefly Hh reporter signal, replicate 2": 86604, "Renilla reference signal, replicate 1": 1642, "Renilla reference signal, replicate 2": 3475}

Reagents listed above called active (1):
{"Gene": "CG12607", "dsRNA no.": 1, "firefly Hh reporter signal, replicate 1": "54009 (active)", "firefly Hh reporter signal, replicate 2": 49829, "Renilla reference signal, replicate 1": 1073, "Renilla reference signal, replicate 2": 3888}
